## Results of single-concentration screens

Amino acid sequences for entries named in this document (tags omitted). Residues count along the entry.
UniProt Q4DA54, 1-478: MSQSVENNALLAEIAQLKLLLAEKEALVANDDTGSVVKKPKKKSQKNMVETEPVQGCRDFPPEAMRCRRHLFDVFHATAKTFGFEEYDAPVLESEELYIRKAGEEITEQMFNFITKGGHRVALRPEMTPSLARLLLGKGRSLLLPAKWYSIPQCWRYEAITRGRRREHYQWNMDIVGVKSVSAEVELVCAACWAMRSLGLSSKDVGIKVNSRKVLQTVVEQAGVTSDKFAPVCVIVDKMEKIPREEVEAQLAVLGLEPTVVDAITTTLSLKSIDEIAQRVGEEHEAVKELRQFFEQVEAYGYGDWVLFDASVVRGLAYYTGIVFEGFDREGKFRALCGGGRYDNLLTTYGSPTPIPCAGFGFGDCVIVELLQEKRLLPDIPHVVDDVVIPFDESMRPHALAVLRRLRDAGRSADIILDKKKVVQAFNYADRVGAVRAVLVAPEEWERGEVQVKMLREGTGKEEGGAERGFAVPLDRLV

The values are deposited in ChEMBL (CHEMBL3988442, “University of Dundee, Small-Polar-MMV Screening Library” (2021)).

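Histidine-tRNA ligase, Trypanosoma cruzi CL Brener (UniProt Q4DA54). Enzyme assay of histidyl-tRNA synthetase; the read-out is not stated. Compounds at 30 µM. The record gives no direction; compounds that gave an IC50 in retests scored well above the rest, so higher reads as stronger inhibition. Size under these conditions: about 69,000 compounds, about 31 of them at 50% or above in at least one test.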

Results are given as percent effect.
How 0% and 100% were set is not recorded. Most values in the screen are low, and negative values occur.
This is an unselected part of the compounds tested.

* Cn1cnnc1CNC(=O)C1CCCN(Cc2cccc(F)c2)C1 (stereo unspecified) | 6.897%
* COCCN1CCC(CN(C)c2ncnc3c2c(C)nn3C)C1 (stereo unspecified) | -0.5128%
* Cc1nnc(C(C)NCC2(c3ccc(F)cc3)CCCCC2)o1 (stereo unspecified) | -3.077%
* CC(C)(C)SCC(=O)Nc1cc(-n2nnnc2C2CC2)ccc1F | 0.4926%
* CN(C)c1ccc(C(=O)N2CCN(Cc3cscn3)CC2)cc1F | 2.662%
* CCOCC(=O)N(C)Cc1nc(C(F)(F)F)cs1 | 0%
* Cn1nc(C(=O)NCCc2ccc(OC3CCCC3)cc2)ccc1=O | -0.5525%
* O=C(COc1ccccc1)N1C[C@@H](O)[C@H](N2CCCC2)C1 | -1.622%
* CN(C)C(=O)C1CCC2(CCN(C(=O)Nc3ccccc3)CC2)O1 (stereo unspecified) | 3.518%
* COc1ccccc1CN1CCC(O)(Cn2ccc3ncccc32)CC1 | 3.191%
* Nc1cc(C(=O)NCC2CCN(Cc3ccncc3F)C2)ccn1 (stereo unspecified) | 0.9804%
* CC(C)c1cc(C(=O)N2CCN(c3cccc(C(=O)O)c3)CC2)n(C)n1 | -1.19%
* COc1cc(C2(C(=O)N3CCN(CC(C)(C)O)CC3)CC2)ccc1C | 3.784%
* CNS(=O)(=O)c1ccc(CN2CCN(Cc3ncccc3C)CC2)cc1 | -1.478%
* OCCC1CN(c2ncnc3[nH]cnc23)CCN1Cc1cccs1 (stereo unspecified) | 6.667%
* Cc1cc2nc(C(C)C)cc(NCC(c3ccccn3)N(C)C)n2n1 (stereo unspecified) | 2.97%
* Cc1cc(C)n(C2CN(CC(O)Cn3cccn3)C2)n1 (stereo unspecified) | 14.12%
* O=C(C1=CCCC1)N1CCO[C@H]2[C@@H](Oc3ccccn3)CC[C@@H]21 | 7.104%
* O=C(NCc1cccs1)[C@H]1CC[C@@H]2[C@@H](CCN2Cc2ccoc2)O1 | 7.477%
* CCOc1ccc(CCCC(=O)N2CCC(C(=O)NC)C2)cc1C (stereo unspecified) | 3.96%
* O=C1CC2(CCN(C(=O)c3ccncc3)CC2)Oc2c(Cl)cc(Cl)cc21 | 0%
* COCCNC(=O)[C@@H]1CC[C@@H]2[C@@H](CCN2Cc2cnn(C)c2)O1 | -0.5405%
* COC(=O)CNC(=O)c1cn(-c2ccccn2)c(=O)c2ccccc12 | 10.42%
* Clc1ccc(CN(CCN2CCOCC2)Cc2cccnc2)c(Cl)c1 | 10.9%
* Cn1ccc(CN2CCC3(CC2)CC(Nc2cnccn2)CO3)n1 (stereo unspecified) | -76.07%
* CCN1CC2(CCC1=O)CCN(Cc1cc(F)ccc1Cl)CC2 | 8.939%
* O=C1Nc2ccccc2C12CCN(Cc1ccccn1)CC2 | 3.883%
* CCCc1nnc(N2C[C@@H](C)[C@@](C)(O)C2)s1 | -2.424%
* CN(Cc1ccco1)C(=O)NC(Cn1ccnc1)C(C)(C)C (stereo unspecified) | 4.615%
* CN(C)CCN1CC(C(=O)NCc2ccc(C#N)cc2)CC1=O (stereo unspecified) | 5.587%
* CCN1CCC12CCN(C(=O)c1cc(C)on1)C2 (stereo unspecified) | 7.767%
* CN(C)c1nc2c(c(N3CCC(O)CC3)n1)CN(CC1CCNC1)CC2 (stereo unspecified) | 4.167%
* CC(=O)NCCCSC1CCCN(c2ccccc2Cl)C1=O (stereo unspecified) | 0.6024%
* O=C(N[C@@H]1CN(c2ncccn2)C[C@@H]2CCCO[C@@H]21)c1ccncc1 | 4.902%
* O=C(c1cc[nH]n1)N1CCc2ncnc(N3CCSCC3)c2CC1 | -1.807%
* CN(C)S(=O)(=O)N1CCN(C(=O)c2cc(-c3ccc(Br)s3)n[nH]2)CC1 | 8.247%
* Cc1noc([C@@H]2CC[C@@H]3[C@@H](CCN3S(=O)(=O)C3CC3)O2)n1 | 3.743%
* c1cc2c(c(-c3cc(N4CCOCC4)ncn3)c1)CCNC2 | 9.497%
* Cc1ccc(NC(=O)N2CCN(Cc3ccccn3)CC2)cc1Cl | -1.754%

The last 4 entries again:

{"compound": "CN(C)S(=O)(=O)N1CCN(C(=O)c2cc(-c3ccc(Br)s3)n[nH]2)CC1", "Percent Effect": 8.247}
{"compound": "Cc1noc([C@@H]2CC[C@@H]3[C@@H](CCN3S(=O)(=O)C3CC3)O2)n1", "Percent Effect": 3.743}
{"compound": "c1cc2c(c(-c3cc(N4CCOCC4)ncn3)c1)CCNC2", "Percent Effect": 9.497}
{"compound": "Cc1ccc(NC(=O)N2CCN(Cc3ccccn3)CC2)cc1Cl", "Percent Effect": -1.754}